# Experimental data as given in the supplement of paper PMC4371806.
# The full ranking holds about 2,300 compounds; the median of “plate-normalized OD600 growth (mean of duplicates)” is about 0.29, and the lowest 2% start at about 0.22. This is one part of the list.
# Test system: Escherichia coli BW25113
# Assay: plate-normalized OD600 growth (mean of duplicates) (OD600 (normalized)); higher = more growth (less inhibition)
# Settings: 10 µM
# Procedure: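 E. coli BW25113 in LB (100 µl, 96-well, no shaking) was exposed to 10 µM of each compound from a ~30,000-member library and grown at 37°C for 24 h or 15°C for 48 h, in duplicate. Growth was read as OD600 and the duplicate ODs were normalized across screening plates to correct plate-to-plate variation. Hits were >3σ below the mean OD600 at 15°C and <2σ below the mean at 37°C.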
Structure (SMILES),"plate-normalized OD600 growth (temperature: 15°C, 48 h)","plate-normalized OD600 growth (temperature: 37°C, 24 h)"
Clc1ccc(C2=CSC3=NCCCN23)cc1,0.238,0.619
NC(=NS(=O)(=O)c1cc(C(F)(F)F)cc(C(F)(F)F)c1)c1cccs1,0.251,0.627
O=C(O)c1oc(C(=O)O)c(OCc2ccccc2)c1OCc1ccccc1,0.263,0.637
CC(C)Nc1nc(Cl)nc(Nc2cccc(C(F)(F)F)c2)n1,0.262,0.62
O=C(O)c1ccc(-c2nc(-c3ccc4c(c3)C(=O)c3cc([N+](=O)[O-])ccc3-4)c(-c3ccccc3)[nH]2)cc1,0.256,0.648
CCOC(=O)c1sc2sc(C(=O)c3ccc(Cl)cc3)c(C)c2c1C,0.267,0.616
Cc1ccc2nc(/C(C#N)=C/c3ccccc3F)[nH]c2c1,0.25,0.622
CC(C)(C)OC(=O)NC(Cc1ccc(OCc2ccccc2)cc1)C(=O)O (centres undefined),0.26,0.615
CCOC(=O)/C(C(C)=O)=C1/SCC(C)S1 (centres undefined),0.235,0.609
Cc1ccc(S(=O)(=O)N2CCN(C(=O)Cc3ccccc3)CC2)c(C)c1,0.257,0.649
CSc1ccccc1CNC(=O)NC12CC3CC(CC(C3)C1)C2,0.226,0.633
N#CC1=C(N)C(C#N)(C#N)[C@@H](c2ccccc2F)[C@@H]2CN(Cc3ccccc3)CC=C12,0.25,0.603
COC(=O)c1ccc(C=Nc2ccc(Cl)cn2)cc1,0.229,0.608
Cc1c(O)ccc(NC(=O)c2ccc(Br)cc2)c1C,0.249,0.618
COc1ccc(S(=O)(=O)N(Cc2ccccc2)c2ccccc2C(=O)N/N=C(\C)c2ccccc2O)cc1,0.259,0.618
Clc1ccc(Cn2nnc(-c3ccccc3)n2)cc1,0.246,0.585
Cc1cscc1C#N,0.261,0.631
N#CC1=C(C(C#N)c2nc3ccccc3s2)NC(N)=C(C(N)=O)C1 (centres undefined),0.258,0.618
CC(=N/O)/C(C)=C/c1ccc(Cl)cc1,0.253,0.618
CCOC(=O)c1ccc(NC(=O)CSc2nnc3c4ccccc4n(CCc4ccccc4)c3n2)cc1,0.263,0.622
C=CCn1c(SCC(=O)N2CCN(c3ccc(F)cc3)CC2)nnc1-c1cccs1,0.222,0.605
BrCC1CCCCO1 (centres undefined),0.281,0.663
CCOc1ccc(CCN=C2CC(c3ccccc3)CC(=O)C2=C(O)CC)cc1OCC (centres undefined),0.246,0.636
O=C(CC1CCC1)Nc1cc(Cl)ccc1Cl,0.256,0.619
N#Cc1c(Cl)cccc1N1CCCC1,0.238,0.605

Structure (SMILES),"plate-normalized OD600 growth (temperature: 15°C, 48 h)","plate-normalized OD600 growth (temperature: 37°C, 24 h)"
NNC(=O)C1C2CCCCC21 (centres undefined),0.244,0.627
CC1(C)CC(=O)C(C=Nn2c(C(F)(F)F)nc3ccccc3c2=O)=C(O)C1,0.227,0.654
COc1cc(OC)nc(N)n1,0.242,0.623
Cc1cc(C)c([N+](=O)[O-])c(C)c1C1C(N)=C(C#N)OC2=C1C(=O)CC(C)(C)C2 (centres undefined),0.262,0.621
O=C1NCCN1c1ccncc1,0.241,0.662
COC(=O)C1=C(N)N(c2ccc(F)cc2)C2=C(C(=O)CCC2)C1c1ccc2c(c1)OCO2 (centres undefined),0.249,0.598
COC(=O)CSCCc1nc(-c2ccc([N+](=O)[O-])cc2)cs1,0.252,0.613
CCOC(=O)C1=C(CSc2nc(-c3cccs3)ccc2C#N)OC(N)=C(C#N)C1c1ccc(C#N)cc1 (centres undefined),0.256,0.608
CCCOC(=O)c1ccc(NC(=O)c2c(C)cc(C)cc2C)cc1,0.25,0.607
N#C/C(=C\c1ccc(OC(=O)c2cccc([N+](=O)[O-])c2)cc1)C(=O)c1ccccc1,0.211,0.634
NNC(=O)c1cnn(-c2ccc(Cl)cc2)c1C(F)(F)F,0.253,0.627
CSc1ccc(/C=C2\N=C(c3ccccc3)N(c3ccc(C(=O)Nc4ccc(Br)cc4)cc3)C2=O)cc1,0.257,0.649
Cc1ccc(N2CCN(S(=O)(=O)c3cc(C(C)C)ccc3C)CC2)cc1Cl,0.255,0.62
C#CCOc1ccc2ccccc2c1/C=C1\SC(=Nc2ccc(C(=O)O)cc2)NC1=O,0.248,0.64
NC(=O)CCN1CCn2c1nc1ccccc12,0.255,0.636
O=C(O)c1cccc(S(=O)(=O)Nc2ccc(Cl)cc2)c1,0.257,0.625
C/C(CC(=O)Nc1ccc(N(C)C)cc1)=N\NC(=O)COc1ccc(C)cc1,0.236,0.627
COc1ccc(/C=C/C2=CCN(Cc3ccccc3)CC2)cc1,0.239,0.606
O=[N+]([O-])c1cc(C(F)(F)F)cnc1Br,0.259,0.604
COc1cc2c(cc1OC)C(C)N(S(=O)(=O)c1cn(C)c(C)n1)CC2 (centres undefined),0.245,0.611
CC(=O)c1sc(SCc2ccc(Cl)cc2)c2c1CC(C)(C)CC2=O,0.231,0.652
COc1cccc(C=Nc2ccc(N3CCOCC3)cc2)c1OC(C)C,0.251,0.631
COc1ccccc1N(C(=O)c1ccc(C)cc1)c1nc(C(F)(F)F)c(-c2ccccc2)s1,0.238,0.639
O=C1NC2CC2N1C(=O)OCc1ccccc1 (centres undefined),0.223,0.618
NC(N)=Nc1nc(-c2cc(Cl)sc2Cl)cs1,0.242,0.607

Structure (SMILES),"plate-normalized OD600 growth (temperature: 15°C, 48 h)","plate-normalized OD600 growth (temperature: 37°C, 24 h)"
COc1ccc(-c2ccnc(SCC(=O)NCCSCc3ccco3)n2)cc1,0.246,0.61
CCOC(=O)c1ccc(NC(=O)CCC(=O)O)cc1,0.256,0.611
Cc1ccc(OC(=O)NC2CCC(CC3CCC(NC(=O)Oc4ccc(C)c(C)c4)CC3)CC2)cc1C (centres undefined),0.219,0.611
CN(C)/C=C(\C#N)C(=O)Nc1ccc(F)c(Cl)c1,0.236,0.602
CN1CCC(=NNC(=O)CCSc2ccc(Cl)cc2)CC1,0.254,0.609
COc1ccccc1N=C(N)SCc1ccccc1,0.236,0.606
CC(C)n1c(Sc2nccn2C)nc2c1c(=O)n(C)c(=O)n2C,0.251,0.654
Cn1c(=O)c2c(nc3n2CC(c2ccc([N+](=O)[O-])cc2)=NN3)n(C)c1=O,0.27,0.615
Fc1ccccc1Nc1nc2nonc2nc1N1CCOCC1,0.314,0.649
CCOC(=O)Cn1c2c(sc1=NC(=O)c1ccc(Cl)cc1)CC(C(C)(C)C)CC2 (centres undefined),0.239,0.616
Nc1cc(-c2ccc(Cl)cc2)nc(N)n1,0.228,0.59
Cc1cc(=O)oc2c(CN(C)C)c(O)ccc12,0.236,0.599
COC(=O)c1ccc(OCC(=O)Nc2nc3c(s2)CCCC3)cc1,0.246,0.62
Cc1cc(O)c(C)c(O)c1/C=N/NC(=O)CNC(=O)c1ccco1,0.245,0.61
Cc1ccc(/C=N/NC(=O)c2ccccc2N)cc1Br,0.228,0.592
O=C(O)C1c2ccccc2Oc2ccccc21,0.221,0.606
O=C(N/N=C\c1ccc(-c2ccc(Cl)cc2Cl)o1)/C(=C\c1ccc2c(c1)OCO2)NC(=O)c1ccccc1,0.231,0.631
Clc1ccc(Sc2ncnc3ccsc23)cc1,0.221,0.613
CSc1ncc(C#N)c2nc(-c3ccc(N(C)C)cc3)nn12,0.241,0.625
CCC(=O)N1CCN(c2ccc(NCc3ccccc3)cc2)CC1,0.252,0.6
O=C(CSc1nc2ccc(N3C(=O)c4cccc5cccc(c45)C3=O)cc2s1)NC1CC1,0.246,0.604
COC(=O)N1[C@@H](c2ccccc2)N(c2ccc(OC)cc2)[C@H](c2ccccc2)N1C(=O)OC,0.246,0.61
CCOc1ccc(-n2c(-c3ccccc3)cc(C=Nc3ccc4ncccc4c3)c2-c2ccccc2)cc1,0.263,0.61
Cc1cc(C(O)(C(F)(F)F)C(F)(F)F)cc(C)c1O,0.249,0.618
COC(=O)C1=NN(c2ccccc2Cl)C2(S1)c1ccccc1C(C)=NN2c1ccccc1 (centres undefined),0.234,0.641

Structure (SMILES),"plate-normalized OD600 growth (temperature: 15°C, 48 h)","plate-normalized OD600 growth (temperature: 37°C, 24 h)"
Cc1cc(C(=O)O/N=C(\N)CSc2ncccc2C(F)(F)F)no1,0.254,0.618
Cc1ccc(C(=O)O)c(C(=O)Nc2nc3ccccc3s2)c1,0.26,0.605
CCOC(=O)c1c(CN2CCN(CCO)CC2)n(C)c2cc(Br)c(OC(C)=O)cc12,0.246,0.602
Cc1oc(CC(C)C)cc1C(=O)Nc1cccc(C(=O)O)c1,0.255,0.643
O=C1NN(c2ccccc2)C(=S)Nc2ccccc21,0.243,0.604
CC(=O)NC1=NC(=O)/C(=C2/C(=O)N(C(C)=O)c3ccccc32)S1,0.231,0.58
Cc1onc(-c2ccccc2Cl)c1C(=O)NNC(=O)c1ccccc1F,0.249,0.645
O=C1CC(n2nnn(-c3cccc(Cl)c3)c2=S)C2COC1O2 (centres undefined),0.232,0.605
COc1cc(C=O)ccc1OCC(=O)O,0.269,0.622
CCOC(=N)c1ccc(F)c(Cl)c1,0.242,0.589
NNC(=S)Nc1cc(C(F)(F)F)ccc1Cl,0.248,0.607
O=C(Nc1cc2cc[nH]c2cn1)c1ccccc1,0.237,0.623
CCCCOc1ccc(N2C(=O)CC(NCc3ccc(S(N)(=O)=O)cc3)C2=O)cc1 (centres undefined),0.247,0.614
COc1ccnc(Cl)c1C(=O)O,0.223,0.57
COc1cc(OC)c(C2C(C#N)=C(N)Oc3n[nH]c(-c4cccnc4)c32)cc1OC (centres undefined),0.244,0.612
CCC1C(=O)C2=C(CC(C)(C)CC2=O)N(c2ccc(OC)cc2)C1c1ccccc1 (centres undefined),0.232,0.624
Cc1cccc(N=Cc2ccc(OCc3ccccc3Cl)cc2)c1,0.252,0.606
O=C(Nc1cc(C(F)(F)F)ccc1Cl)C(=O)Nc1cc(C(F)(F)F)ccc1Cl,0.238,0.614
COC(=O)c1cc([N+](=O)[O-])ccc1N1CCOCC1,0.236,0.626
CCOC(=O)c1ccc(-c2ccc(/C=c3/sc4nc5c(C)cc(C)cc5n4c3=O)o2)cc1,0.234,0.596
CCNC(=S)Nc1c(C)n(C)n(-c2ccccc2)c1=O,0.256,0.666
OC(C#CCN1CCCC1)c1ccccc1 (centres undefined),0.228,0.644

# Some of the entries above in another layout:
Structure (SMILES)	plate-normalized OD600 growth (temperature: 15°C, 48 h)	plate-normalized OD600 growth (temperature: 37°C, 24 h)
Cc1cc(C(=O)O/N=C(\N)CSc2ncccc2C(F)(F)F)no1	0.254	0.618
Cc1ccc(C(=O)O)c(C(=O)Nc2nc3ccccc3s2)c1	0.26	0.605
Cc1onc(-c2ccccc2Cl)c1C(=O)NNC(=O)c1ccccc1F	0.249	0.645
CCOC(=N)c1ccc(F)c(Cl)c1	0.242	0.589
COc1cc(OC)c(C2C(C#N)=C(N)Oc3n[nH]c(-c4cccnc4)c32)cc1OC (centres undefined)	0.244	0.612
COC(=O)c1cc([N+](=O)[O-])ccc1N1CCOCC1	0.236	0.626
